# Counter-ions that a name gives are not always drawn. Screen size: about 1,200 compounds; about 50 (4%) showed activity. Cut-off read from the data, not from the text of the source: all actives reach 1.3 or more but so do some inactives. The list shows a part of the results.
# Test system: Lgr5 (MarsCy1-Lgr5-EGFP, U2OS)
# Assay: cell-surface Lgr5 expression (SCi1 fluorescence, background-subtracted) relative to WT DMSO (fold of DMSO control); higher = more Lgr5 at the plasma membrane, active = hit call of the paper
# Settings: U2OS MarsCy1-Lgr5-EGFP stable; treatment time: overnight; 16 µM; library: Johns Hopkins Clinical Compound Library
row,SMILES,cell-surface Lgr5 expression
1,OCCN1C[C@H](O)[C@@H](O)[C@H](O)[C@H]1CO [Miglitol],inactive: 0.772
2,CC(C)C(=O)Nc1ccc([N+](=O)[O-])c(C(F)(F)F)c1 [Flutamide],inactive: 1.16
3,CC1COc2c(N3CCN(C)CC3)c(F)cc3c(=O)c(C(=O)O)cn1c23 (stereo not drawn) [Ofloxacin],inactive: 0.845
4,CC(=O)SCC(Cc1ccccc1)C(=O)NCC(=O)OCc1ccccc1 (stereo not drawn) [Racecadotril],inactive: 1.24
5,COC(=O)C1=C(C)NC(C)=C(C(=O)OC(C)C)C1c1cccc2nonc12 (stereo not drawn) [Isradipine],inactive: 1.01
6,O=c1[nH]cnc2c1ncn2[C@H]1CC[C@@H](CO)O1 [Didanosine (2'-3'-dideoxyinosine)],inactive: 0.953
7,CN(C/C=C/C#CC(C)(C)C)Cc1cccc2ccccc12 [Terbinafine],inactive: 0.701
8,Nc1nc(O)c2ncn(CCC(CO)CO)c2n1 [Penciclovir],inactive: 0.791
9,C[C@H]1COc2c(N3CCN(C)CC3)c(F)cc3c(=O)c(C(=O)O)cn1c23 [Levofloxacin HCl],inactive: 0.936
10,NC(CO)C(=O)NNCc1ccc(O)c(O)c1O (stereo not drawn) [Benserazide],inactive: 1.01
11,NCC[C@H](O)C(=O)N[C@@H]1C[C@H](N)[C@@H](O[C@H]2O[C@H](CN)[C@@H](O)[C@H](O)[C@H]2O)[C@H](O)[C@H]1O[C@H]1O[C@H](CO)[C@@H](O)[C@H](N)[C@H]1O [Amikacin],inactive: 0.918
12,O.O.O.O.O.O.[Br-].[Br-].[Sr+2] [Strontium bromide hexahydrate],inactive: 0.469
13,CCOc1ccc(NC(=O)CC(C)O)cc1 (stereo not drawn) [Bucetin],inactive: 1.29
14,CC(=O)OCC1=C(C(=O)O)N2C(=O)[C@@H](NC(=O)Cc3cccs3)[C@H]2SC1 [Cephalothin],inactive: 0.925
15,CC1(C)S[C@@H]2[C@H](NC(=O)Cc3ccccc3)C(=O)N2[C@H]1C(=O)O [Penicillin G benzathine],inactive: 1.03
16,CC1(C)S[C@@H]2[C@H](NC(=O)Cc3ccccc3)C(=O)N2[C@H]1C(=O)O [Penicillin G (procaine salt)],inactive: 0.994
17,CC1(C)S[C@@H]2[C@H](NC(=O)Cc3ccccc3)C(=O)N2[C@H]1C(=O)O [Penicillin g],inactive: 0.966
18,CC1(C)S[C@@H]2[C@H](NC(=O)Cc3ccccc3)C(=O)N2[C@H]1C(=O)O [Penicillin G potassium (Benzyl penicillin potassium)],inactive: 0.951
19,CC1(C)S[C@@H]2[C@H](NC(=O)Cc3ccccc3)C(=O)N2[C@H]1C(=O)O [Penicillin G sodium],inactive: 0.968
20,CCCCc1nc(Cl)c(CO)n1Cc1ccc(-c2ccccc2-c2nnn[nH]2)cc1 [Losartan],inactive: 0.915
21,C=CCCCCCCCCC(=O)O [Undecylenic acid],inactive: 0.836
22,C[C@H](N)C(=O)N[C@@H](C)P(=O)(O)O [Alfafosfalin (L-alanyl-L-1-aminoethylphosphonic acid)],inactive: 1.36

row,SMILES,cell-surface Lgr5 expression
1,O=C1OC(CN2CCOCC2)CN1/N=C/c1ccc([N+](=O)[O-])o1 (stereo not drawn) [Furaltadone],inactive: 1.1
2,C[n+]1ccccc1C=NO [Pralidoxime (2-Pyridinealdoxime methiodide)],inactive: 1.11
3,C[n+]1ccccc1C=NO [Pralidoxime (pyridine 2-aldoximemethochloride)],inactive: 1.01
4,CNCCCN1c2ccccc2CCc2ccccc21 [Desipramine],inactive: 1
5,O=C1OC(c2ccc(O)cc2)(c2ccc(O[C@@H]3O[C@H](C(=O)O)[C@@H](O)[C@H](O)[C@H]3O)cc2)c2ccccc21 (stereo partly drawn) [Phenolphthalein beta-D-glucuronide sodium salt],inactive: 1
6,CCC(C)n1ncn(-c2ccc(N3CCN(c4ccc(OCC5COC(Cn6cncn6)(c6ccc(Cl)cc6Cl)O5)cc4)CC3)cc2)c1=O (stereo not drawn) [Itraconazole],inactive: 0.317
7,O=C(Nc1ccccc1)c1cc(Cl)ccc1O [5-Chlorosalicylanilide],inactive: 1.12
8,O=C(O)CCC(=O)C(=O)O [α-Ketoglutaric acid],inactive: 0.995
9,C[C@H]1[C@H](OC(=O)CCC(=O)O)O[C@@H]2O[C@@]3(C)CC[C@H]4[C@H](C)CC[C@@H]1[C@@]24OO3 [Artesunate],inactive: 0.996
10,CCCn1cnc2c1c(=O)n(CCCCC(C)=O)c(=O)n2C [Propentofylline],inactive: 1.12
11,O=C(O)CN(CCN(CC(=O)O)CC(=O)O)CCN(CC(=O)O)CC(=O)O [Pentetic acid (Diethylenetriaminepentacetic acid)],inactive: 1.04
12,O=C1/C(=C2\Nc3ccc(S(=O)(=O)O)cc3C2=O)Nc2ccc(S(=O)(=O)O)cc21 [Indigotindisulfonate],inactive: 1.17
13,CCN(CC)Cc1cc(Nc2ccnc3cc(Cl)ccc23)ccc1O [Amodiaquin],inactive: 1.47
14,CCOC(=O)C(=O)OCC [Diethyl oxalate],inactive: 1.01
15,O=C([O-])[O-].[Bi+3].[Bi+3].[O-2].[O-2] [Bismuth subcarbonate (Bismuth Carbonate Oxide)],inactive: 0.962
16,CCCCCOC(=O)Nc1nc(=O)n([C@@H]2O[C@H](C)[C@@H](O)[C@H]2O)cc1F [Capecitabine],inactive: 1.33
17,Cc1ncc(COP(=O)(O)O)c(C=O)c1O [Pyridoxal-5-phosphate],inactive: 0.951
18,CCC1NC(=O)c2cc(S(N)(=O)=O)c(Cl)cc2N1 (stereo not drawn) [Quinethazone],inactive: 1.21
19,CC(O)(P(=O)(O)O)P(=O)(O)O [Etidronate disodium],inactive: 0.756
20,"CC(O)(P(=O)(O)O)P(=O)(O)O [Etidronic acid (1-hydroxyethane-1,1-diphosphonic acid)]",inactive: 0.814
21,Cc1cnc(C(=O)NCCc2ccc(S(=O)(=O)NC(=O)NC3CCCCC3)cc2)cn1 [Glipizide],inactive: 1.02

# Reference: the supplement of paper PMC4683952
